Test results as given in paper PMC8387950.
These are yes or no findings as the source states them, for the method shown. Binding seen in cells or lysates may run through a third protein. Some binding calls cover weakened binding; strength is not graded here.

Sequences of proteins named here, by UniProt entry; tags and fusion partners are left off.
UniProt P05413: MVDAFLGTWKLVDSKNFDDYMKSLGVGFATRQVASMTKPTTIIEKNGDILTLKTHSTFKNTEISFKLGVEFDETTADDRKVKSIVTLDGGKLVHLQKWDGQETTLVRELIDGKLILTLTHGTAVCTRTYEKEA
UniProt P07483: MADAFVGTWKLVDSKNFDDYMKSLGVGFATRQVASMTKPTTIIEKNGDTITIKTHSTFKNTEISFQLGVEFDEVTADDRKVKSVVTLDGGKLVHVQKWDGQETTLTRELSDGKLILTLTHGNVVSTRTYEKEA

T1: PPARα, overexpressed in NRVMs (UniProt P37230)
T1 sequence: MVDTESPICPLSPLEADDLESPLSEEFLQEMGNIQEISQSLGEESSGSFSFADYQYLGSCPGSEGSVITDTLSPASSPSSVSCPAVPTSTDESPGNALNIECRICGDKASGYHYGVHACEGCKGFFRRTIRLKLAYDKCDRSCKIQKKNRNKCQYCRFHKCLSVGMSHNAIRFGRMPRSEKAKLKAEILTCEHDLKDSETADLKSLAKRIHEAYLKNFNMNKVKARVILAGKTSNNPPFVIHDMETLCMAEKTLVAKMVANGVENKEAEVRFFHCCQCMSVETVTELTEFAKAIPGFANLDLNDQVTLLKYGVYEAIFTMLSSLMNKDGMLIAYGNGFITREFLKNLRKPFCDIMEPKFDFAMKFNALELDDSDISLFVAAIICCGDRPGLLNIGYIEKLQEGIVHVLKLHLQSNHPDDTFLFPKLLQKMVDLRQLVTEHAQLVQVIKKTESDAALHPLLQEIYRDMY


Assays:
[1] = biological target: T1, PPARα, overexpressed in NRVMs; experiment: co-IP; NRVMs overexpressing Fabp3 or Pparα, treated with or without Ang II for 24 h; immunoprecipitated with the antibody to the overexpressed protein (FABP3 or PPARα), western blot with indicated antibodies
[2] = biological target: fatty acid binding protein 3 (FABP3), overexpressed from lentivirus Lenti-F3 (UniProt P05413); experiment: as above

Row | binding [1] | binding [2] | Molecule
1 | binds | – | FABP3 found in NRVMs with Pparα overexpression (from UniProt P07483 1-133)
2 | – | binds | PPARα found in NRVMs with Fabp3 overexpression (protein, UniProt P37230 1-468) MVDTESPICPLSPLEADDLESPLSEEFLQEMGNIQEISQSLGEESSGSFSFADYQYLGSCPGSEGSVITDTLSPASSPSSVSCPAVPTSTDESPGNALNIECRICGDKASGYHYGVHACEGCKGFFRRTIRLKLAYDKCDRSCKIQKKNRNKCQYCRFHKCLSVGMSHNAIRFGRMPRSEKAKLKAEILTCEHDLKDSETADLKSLAKRIHEAYLKNFNMNKVKARVILAGKTSNNPPFVIHDMETLCMAEKTLVAKMVANGVENKEAEVRFFHCCQCMSVETVTELTEFAKAIPGFANLDLNDQVTLLKYGVYEAIFTMLSSLMNKDGMLIAYGNGFITREFLKNLRKPFCDIMEPKFDFAMKFNALELDDSDISLFVAAIICCGDRPGLLNIGYIEKLQEGIVHVLKLHLQSNHPDDTFLFPKLLQKMVDLRQLVTEHAQLVQVIKKTESDAALHPLLQEIYRDMY
